# Assay results taken from the supplement of paper PMC8728848.
# The list shows a part of the results.
# Assays:
# Assay in all cases: glycan array binding signal (z-score within array); higher = stronger binding
# Conditions in all cases: glycan notation: IUPAC condensed, linker removed
# [1] = molecular target: Neu5Ac(a2-6)Gal(b1-4)GlcNAc(b1-2)Man(a1-6)[Gal(b1-4)GlcNAc(b1-2)Man(a1-3)]Man(b1-4)GlcNAc(b1-4)GlcNAc
# Summary of the method: (§1)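 Arrays were curated from the Consortium for Functional Glycomics database, 3228 in total, and kept only where the protein sequence was available. Binding is expressed as a within-array Z-score. This score was averaged across arrays of the same protein sequence at different concentrations or buffers and across linkers, and negative values can be read as non-binding.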
# [2] = molecular target: Neu5Ac(a2-6)Gal(b1-4)GlcNAc(b1-2)Man(a1-6)[GlcNAc(b1-2)Man(a1-3)]Man(b1-4)GlcNAc(b1-4)GlcNAc
# Summary of the method: as §1
# [3] = molecular target: Neu5Ac(a2-6)Gal(b1-4)GlcNAc(b1-2)Man(a1-6)[Man(a1-3)]Man(b1-4)GlcNAc(b1-4)GlcNAc
# Summary of the method: as §1
# [4] = molecular target: Neu5Ac(a2-6)Gal(b1-4)GlcNAc(b1-2)[Neu5Ac(a2-6)Gal(b1-4)GlcNAc(b1-4)]Man(a1-3)[GlcNAc(b1-4)][Neu5Ac(a2-6)Gal(b1-4)GlcNAc(b1-2)[Neu5Ac(a2-6)Gal(b1-4)GlcNAc(b1-6)]Man(a1-6)]Man(b1-4)GlcNAc(b1-4)GlcNAc
# Summary of the method: as §1
# [5] = molecular target: Neu5Ac(a2-6)Gal(b1-4)GlcNAc(b1-2)[Neu5Ac(a2-6)Gal(b1-4)GlcNAc(b1-4)]Man(a1-3)[GlcNAc(b1-4)][Neu5Ac(a2-6)Gal(b1-4)GlcNAc(b1-4)Man(a1-6)]Man(b1-4)GlcNAc(b1-4)GlcNAc
# Summary of the method: as §1
# [6] = molecular target: Neu5Ac(a2-6)Gal(b1-4)GlcNAc(b1-2)[Neu5Ac(a2-6)Gal(b1-4)GlcNAc(b1-6)]Man(a1-6)[Neu5Ac(a2-6)Gal(b1-4)GlcNAc(b1-2)Man(a1-3)][GlcNAc(b1-4)]Man(b1-4)GlcNAc(b1-4)GlcNAc
# Summary of the method: as §1
# [7] = molecular target: Neu5Ac(a2-6)Gal(b1-4)GlcNAc(b1-3)Gal(b1-3)GlcNAc
# Summary of the method: as §1
# [8] = molecular target: Neu5Ac(a2-6)Gal(b1-4)GlcNAc(b1-3)Gal(b1-4)GlcNAc
# Summary of the method: as §1
# [9] = molecular target: Neu5Ac(a2-6)Gal(b1-4)GlcNAc(b1-3)Gal(b1-4)GlcNAc(b1-2)Man(a1-3)[Neu5Ac(a2-6)Gal(b1-4)GlcNAc(b1-3)Gal(b1-4)GlcNAc(b1-2)Man(a1-6)]GalNAc
# Summary of the method: as §1
# [10] = molecular target: Neu5Ac(a2-6)Gal(b1-4)GlcNAc(b1-3)Gal(b1-4)GlcNAc(b1-3)Gal(b1-4)GlcNAc
# Summary of the method: as §1
# [11] = molecular target: Neu5Ac(a2-6)Gal(b1-4)GlcNAc(b1-3)Gal(b1-4)GlcNAc(b1-3)Gal(b1-4)GlcNAc(b1-2)Man(a1-3)[Neu5Ac(a2-6)Gal(b1-4)GlcNAc(b1-3)Gal(b1-4)GlcNAc(b1-3)Gal(b1-4)GlcNAc(b1-2)Man(a1-6)]GalNAc
# Summary of the method: as §1
# [12] = molecular target: Neu5Ac(a2-6)Gal(b1-4)GlcNAc(b1-3)Gal(b1-4)GlcNAc(b1-3)GalNAc
# Summary of the method: as §1
# [13] = molecular target: Neu5Ac(a2-6)Gal(b1-4)GlcNAc(b1-3)Gal(b1-4)GlcNAc(b1-3)[Neu5Ac(a2-6)Gal(b1-4)GlcNAc(b1-3)Gal(b1-4)GlcNAc(b1-6)]GalNAc
# Summary of the method: as §1
# [14] = molecular target: Neu5Ac(a2-6)Gal(b1-4)GlcNAc(b1-3)Gal(b1-4)GlcNAc(b1-6)[Gal(b1-3)]GalNAc
# Summary of the method: as §1
# [15] = molecular target: Neu5Ac(a2-6)Gal(b1-4)GlcNAc(b1-3)Gal(b1-4)[Fuc(a1-3)]GlcNAc(b1-3)Gal(b1-4)[Fuc(a1-3)]GlcNAc
# Summary of the method: as §1
# [16] = molecular target: Neu5Ac(a2-6)Gal(b1-4)GlcNAc(b1-3)GalNAc
# Summary of the method: as §1
# [17] = molecular target: Neu5Ac(a2-6)Gal(b1-4)GlcNAc(b1-3)[Neu5Ac(a2-6)Gal(b1-4)GlcNAc(b1-6)]GalNAc
# Summary of the method: as §1
# [18] = molecular target: Neu5Ac(a2-6)Gal(b1-4)GlcNAc(b1-6)GalNAc
# Summary of the method: as §1
# [19] = molecular target: Neu5Ac(a2-6)Gal(b1-4)GlcNAc(b1-6)[Gal(b1-3)GlcNAc(b1-3)]Gal(b1-4)Glc
# Summary of the method: as §1
# [20] = molecular target: Neu5Ac(a2-6)Gal(b1-4)GlcNAc(b1-6)[Gal(b1-3)]GalNAc
# Summary of the method: as §1
# [21] = molecular target: Neu5Ac(a2-6)Gal(b1-4)GlcNAc6S
# Summary of the method: as §1
# [22] = molecular target: Neu5Ac(a2-6)GalNAc
# Summary of the method: as §1
# [23] = molecular target: Neu5Ac(a2-6)GalNAc(b1-4)GlcNAc
# Summary of the method: as §1
# [24] = molecular target: Neu5Ac(a2-6)GalNAc(b1-4)GlcNAc6S
# Summary of the method: as §1
# [25] = molecular target: Neu5Ac(a2-6)GlcNAc(b1-4)GlcNAc
# Summary of the method: as §1
# [26] = molecular target: Neu5Ac(a2-6)GlcNAc(b1-4)GlcNAc(b1-4)GlcNAc
# Summary of the method: as §1
# [27] = molecular target: Neu5Ac(a2-8)Neu5Ac
# Summary of the method: as §1
# [28] = molecular target: Neu5Ac(a2-8)Neu5Ac(a2-3)Gal(b1-3)GalNAc(b1-4)[Neu5Ac(a2-3)]Gal(b1-4)Glc
# Summary of the method: as §1
binder,measurement,setting,value
"GST-Gap1 (Streptococcus parasanguinis), A1C3L5 (protein) MFYFVPSWYNGQRQWYYDTPWWFRVKNRMTFDDSVNQVKMFLQGQEEIGLMILNYQPQLRYFLHKQNIFGIYYWSFFDDIQNITRSYTKIIHLKDLNWPEGCEFLYSPFAVVVRLKGEIFAIVNYAEDGNLHSVSFQKNGKVTKDYIFDDRGFLSSILYYDIDERPLYQDYLNINGVWQVREFLKKENDPTPILMINDFSDQTFSKKYYNGWEELIKERLAIFQNNHVENEDVFVLASDTQHNQLVSSIFKEHRKIYSFFGNRFNLENLGQDRISINDATFLVVDTEKNEELLRKTCENLVFKSIPIVRLSPFDSRLRLGHSQTVKEQIIYFHIDNIELDELYSVIAIILELMTLHLDIELRIVTFRQDFQLDLLKTWIIDFIKTNHFEDLLFKQISEGENEIEDEGEIELSRIAMECFTNENQIIKCLDTARLVIDLGIEPDLYTQIASISAGIPQINRVSSDYVIHQKNGLVISDISKLSSAIEFYFDGLFNWNEALIYAVRKMSDYTSGKILKQWKGMLKKK",glycan array binding signal (z-score),[1],-0.247
same,glycan array binding signal (z-score),[2],0.187
same,glycan array binding signal (z-score),[3],0.218
same,glycan array binding signal (z-score),[4],-0.54
same,glycan array binding signal (z-score),[5],-0.986
same,glycan array binding signal (z-score),[6],-0.455
same,glycan array binding signal (z-score),[7],-0.308
same,glycan array binding signal (z-score),[8],-0.395
same,glycan array binding signal (z-score),[9],-0.327
same,glycan array binding signal (z-score),[10],-0.204
same,glycan array binding signal (z-score),[11],2.53
same,glycan array binding signal (z-score),[12],1.02
same,glycan array binding signal (z-score),[13],1.25
same,glycan array binding signal (z-score),[14],-1.12
same,glycan array binding signal (z-score),[15],-0.413
same,glycan array binding signal (z-score),[16],-0.167
same,glycan array binding signal (z-score),[17],0.03
same,glycan array binding signal (z-score),[18],1.54
same,glycan array binding signal (z-score),[19],-0.613
same,glycan array binding signal (z-score),[20],-0.402
same,glycan array binding signal (z-score),[21],0.323
same,glycan array binding signal (z-score),[22],-0.126
same,glycan array binding signal (z-score),[23],-0.49
same,glycan array binding signal (z-score),[24],-0.037
same,glycan array binding signal (z-score),[25],-0.414
same,glycan array binding signal (z-score),[26],-0.133
same,glycan array binding signal (z-score),[27],-0.737
same,glycan array binding signal (z-score),[28],0.25

# 2 records drawn at random from those above, as already listed:
binder,measurement,setting,value
"GST-Gap1 (Streptococcus parasanguinis), A1C3L5 (protein) MFYFVPSWYNGQRQWYYDTPWWFRVKNRMTFDDSVNQVKMFLQGQEEIGLMILNYQPQLRYFLHKQNIFGIYYWSFFDDIQNITRSYTKIIHLKDLNWPEGCEFLYSPFAVVVRLKGEIFAIVNYAEDGNLHSVSFQKNGKVTKDYIFDDRGFLSSILYYDIDERPLYQDYLNINGVWQVREFLKKENDPTPILMINDFSDQTFSKKYYNGWEELIKERLAIFQNNHVENEDVFVLASDTQHNQLVSSIFKEHRKIYSFFGNRFNLENLGQDRISINDATFLVVDTEKNEELLRKTCENLVFKSIPIVRLSPFDSRLRLGHSQTVKEQIIYFHIDNIELDELYSVIAIILELMTLHLDIELRIVTFRQDFQLDLLKTWIIDFIKTNHFEDLLFKQISEGENEIEDEGEIELSRIAMECFTNENQIIKCLDTARLVIDLGIEPDLYTQIASISAGIPQINRVSSDYVIHQKNGLVISDISKLSSAIEFYFDGLFNWNEALIYAVRKMSDYTSGKILKQWKGMLKKK",glycan array binding signal (z-score),[1],-0.247
same,glycan array binding signal (z-score),[20],-0.402
